Measurements taken from patent publication US20170362314A1.
No constants are given. Whether binding was seen depends on the method and setting. Some binding calls cover weakened binding; strength is not graded here. Values belong to the binder of their own block, whether it stands above or below them.

The chains behind the UniProt entries cited, without tags or fusion partners. Where a name states a change or a piece, a line headed by the entry shows the natural chain unless it says otherwise.
UniProt P48061: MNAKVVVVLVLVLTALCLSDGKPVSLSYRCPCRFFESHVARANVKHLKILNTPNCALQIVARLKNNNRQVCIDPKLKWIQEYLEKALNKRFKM

Key:
[1] = molecular target: biotinylated CXCL12 (synthesised 68 amino acid CXCL12) (human) (UniProt P48061); experiment: SPR: Fab over biotinylated CXCL12 on a streptavidin chip
[2] = molecular target: biotinylated CXCL12 (synthesised 68 amino acid CXCL12) (human) (UniProt P48061); experiment: SPR off-rate screen, Fab format

binding [1]: binds
binding [2]: binds
B1: 113_1H12 Fab (Fab, V domains shown)
VH: EVQLVQSGAEVKKPGASVKVSCKTSGYTFTNYGISWVRQAPGQGLEWMGWISAYNGNTNYAQKLQGRVTMTTDTSTSTAYMELRSLRSDDTAVYYCARAGGVYYDYFTDYWGQGTMVTVSS
VL: QSELTQPPSASGTPGQRVTISCSGSRSNIGSNSVNWYQQLPGTAPKLLIYNNDERPSGVPDRFSGSKSGTSASLAISGLQSEDEADYFCAAWDDSLNVGELFGGGTKLTVLG

binding [2]: binds
B2: 114_3H1 Fab (Fab, V domains shown)
VH: QVQLVQSGAEVKKPGASVKVSCKVSGYTLTELSMHWVRQAPGKGLEWMGGFDPEDGETIYAQKFQGRVTMTEDTSTDTAYMELSSLGSEDTAVYYCARRVWGSYRPNDAFDIWGQGTLVTVSS
VL: DIQMTQSPSSLSASVGDRVTITCRASQSISDYVNWYQQKPGKAPNLLMFAASTSQSGVPSRFTGSGSGTDFTLTISSLQPEDFATYFCQQSYSPPYTFGQGTKVEIKR
